Results deposited as PubChem BioAssay AID1259269 (Sanger Institute, 2017)
The deposit covers 160 reagents; this is a part drawn at random. 108 of all reagents (68%) count as active. 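Viability cannot exceed 1; how synergy scores were computed is not described.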 Entries without a mark were called inactive. Further read-outs or replicates are left out here. Not stated in the record: the amount of reagent, the time to read-out.

- Assay: 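Retest knock-downs that hurt colorectal cancer cells more once an anchor drug is added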 (follow-up of hits)
- System: HCC2998 human colorectal cancer cells
- Reagent: single siRNA against human genes
- Challenge: anchor drug BYL719 1 µM, cetuximab 5 µg/ml or trametinib 10 nM; DMSO vehicle as comparison arm
- Detection: 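Survival versus non-targeting control siRNA, replicate means, under DMSO or drug (BYL719 1 µM, cetuximab 5 µg/ml, trametinib 10 nM) and a drug synergy score, higher meaning stronger synthetic lethality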
- Scale: synergy score with BYL719 and synergy score with cetuximab and synergy score with trametinib: higher = stronger synthetic lethal effect with the drug
- Active means: 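Active if the synergy score exceeds 0.10 for at least one of BYL719, cetuximab or trametinib; otherwise inactive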
- Meaning of the calls: active = synergy with at least one drug; inactive = no synergy with any drug

Gene | PubChem SID | synergy score with BYL719 | synergy score with cetuximab | synergy score with trametinib
EPHA6 | SID56477259 | 0.0452 (active) | 0.222 | 0.241
EPHA6 | SID56477260 | -0.191 | -0.0456 | -0.0197
EPHA6 | SID56477261 | 0.15 (active) | 0.195 | 0.0683
EPHA6 | SID56477262 | -0.0964 (active) | 0.304 | 0.186
GUCY2D | SID56477308 | 0.00337 (active) | 0 | 0.312
GUCY2D | SID56477309 | -0.147 (active) | -0.219 | 0.202
GUCY2D | SID56477310 | -0.00303 | 0.0346 | 0.0186
GUCY2D | SID135611754 | 0.198 (active) | 0.193 | 0.147
CAMK2N1 | SID134276917 | 0.112 (active) | -0.166 | 0.205
CAMK2N1 | SID134276918 | 0.274 (active) | 0.0205 | 0.0801
CAMK2N1 | SID134276919 | 0.0577 (active) | 0.102 | 0.0992
CAMK2N1 | SID134276920 | -0.112 | 0.0255 | -0.0265
CHD4 | SID134247681 | 0.0578 | -0.0417 | -0.00317
CHD4 | SID134247682 | 0.0833 | 0.0954 | 0.0399
CHD4 | SID134247683 | 0.225 (active) | 0.104 | 0.171
CHD4 | SID134247684 | -0.165 | -0.0758 | -0.0233
KCNH8 | SID134236349 | -0.323 (active) | -0.185 | 0.167
KCNH8 | SID134236350 | 0.0807 (active) | -0.0109 | 0.152
KCNH8 | SID134236351 | -0.322 | -0.143 | 0.0705
KCNH8 | SID134236352 | 0.0769 (active) | 0.0574 | 0.283
CRIM1 | SID134243173 | 0.466 (active) | 0.252 | 0.22
CRIM1 | SID134243174 | 0.34 (active) | 0.0299 | 0.183
CRIM1 | SID134243175 | 0.18 (active) | -0.103 | 0.138
CRIM1 | SID134243176 | 0.0799 (active) | 0.234 | 0.303
IRAK1 | SID56476703 | -0.116 (active) | 0 | 0.513
IRAK1 | SID56476704 | 0.0903 | 0.0495 | -0.0821
IRAK1 | SID56476705 | 0.137 (active) | 0.104 | 0.351
IRAK1 | SID56476706 | 0.17 (active) | -0.213 | -0.124
AK2 | SID56477903 | -0.501 | 0.0117 | 0.0447
AK2 | SID56477904 | -0.235 (active) | 0.283 | 0.354
AK2 | SID56477905 | -0.375 | -0.239 | 0.0138
AK2 | SID56477906 | -0.468 | 0.0225 | 0.0814
GTF2H1 | SID56478227 | -0.218 (active) | 0.133 | 0.0289
GTF2H1 | SID56478228 | 0.0125 (active) | 0.142 | 0.0443
GTF2H1 | SID56478229 | -0.0703 | -0.238 | 0.0172
GTF2H1 | SID56478230 | -0.0205 | -0.0224 | 0.00296
MAP3K8 | SID56475911 | -0.116 | 0 | 0.00558
MAP3K8 | SID56475912 | -0.0362 | 0.0117 | -0.000368
MAP3K8 | SID56475913 | -0.157 (active) | 0.257 | 0.248
MAP3K8 | SID56475914 | 0.187 (active) | 0 | 0.376
CDKN2D | SID56475683 | -0.418 (active) | 0.00324 | 0.25
CDKN2D | SID56475684 | -0.222 (active) | 0.0178 | 0.25
CDKN2D | SID56475686 | -0.116 (active) | 0 | 0.232
CDKN2D | SID135611272 | 0.06 (active) | 0.289 | 0.187
NLK | SID56476715 | -0.232 (active) | -0.131 | 0.176
NLK | SID56476716 | -0.116 (active) | 0.141 | 0.439
NLK | SID56476717 | -0.136 (active) | 0.216 | 0.226
NLK | SID56476718 | -0.0627 (active) | -0.0233 | 0.243
PIM1 | SID56476199 | -0.121 (active) | 0.114 | 0.12
PIM1 | SID56476200 | 0.0558 (active) | 0.0801 | 0.239
PIM1 | SID56476201 | -0.0043 | 0 | 0.0834
PIM1 | SID56476202 | 0.0142 | -0.28 | -0.00432

Records above whose target name begins with K or k:
Gene | PubChem SID | synergy score with BYL719 | synergy score with cetuximab | synergy score with trametinib
KCNH8 | SID134236349 | -0.323 (active) | -0.185 | 0.167
KCNH8 | SID134236350 | 0.0807 (active) | -0.0109 | 0.152
KCNH8 | SID134236351 | -0.322 | -0.143 | 0.0705
KCNH8 | SID134236352 | 0.0769 (active) | 0.0574 | 0.283
